The assay has as its target MATα1 R264H mutant (human) (UniProt Q00266). Nature of the assay: SEC + native gel or EMSA; MATα1 incubated with MATβV1 or MATβV2 in a 1:2 ratio for 1 h at 4°C in 50 mM HEPES pH 7.5, 10 mM MgCl2, 50 mM KCl; Superdex 200 10/300 in 25 mM HEPES pH 7.5, 200 mM NaCl, 1 mM MgCl2, 5 mM KCl, 1 mM TCEP; native PAGE and SDS-PAGE of the complex fraction; both purified. Background: In EMSA bound probe runs differently from free probe, usually more slowly.

Amino acid sequences for entries named in this document (tags omitted). A change or cut given only in a name is not applied to a line headed by its entry.
UniProt Q00266: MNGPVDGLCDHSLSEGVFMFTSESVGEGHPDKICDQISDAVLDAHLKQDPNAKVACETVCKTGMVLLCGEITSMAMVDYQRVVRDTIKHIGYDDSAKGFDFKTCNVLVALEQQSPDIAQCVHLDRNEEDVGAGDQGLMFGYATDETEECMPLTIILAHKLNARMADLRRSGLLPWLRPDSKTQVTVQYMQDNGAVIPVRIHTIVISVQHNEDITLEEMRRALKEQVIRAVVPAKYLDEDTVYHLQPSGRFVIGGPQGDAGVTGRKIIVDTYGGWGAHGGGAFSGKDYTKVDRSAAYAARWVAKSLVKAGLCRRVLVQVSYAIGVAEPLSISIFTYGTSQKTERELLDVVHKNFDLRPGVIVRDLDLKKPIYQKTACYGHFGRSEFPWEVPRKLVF

These are yes or no findings as the source states them, for the method shown.

B1: MATβV2 (regulatory subunit MATβ, isoform V2) (protein, UniProt Q9NZL9-2 1-323)
chain: MPEMPEDMEQEEVNIPNRRVLVTGATGLLGRAVHKEFQQNNWHAVGCGFRRARPKFEQVNLLDSNAVHHIIHDFQPHVIVHCAAERRPDVVENQPDAASQLNVDASGNLAKEAAAVGAFLIYISSDYVFDGTNPPYREEDIPAPLNLYGKTKLDGEKAVLENNLGAAVLRIPILYGEVEKLEESAVTVMFDKVQFSNKSANMDHWQQRFPTHVKDVATVCRQLAEKRMLDPSIKGTFHWSGNEQMTKYEMACAIADAFNLPSSHLRPITDSPVLGAQRPRNAQLDCSKLETLGIGQRTPFRIGIKESLWPFLIDKRWRQTVFH
Consider B1, for which the binding entry is “no binding”.

(Values after article PMC7271947.)
